Results are given in words; binding and its absence hold for the method and conditions named. Binding calls can cover weak binding; strength is not graded here.
Molecular target: T1, E1 domain of human APLP1 (human) (UniProt P51693)
T1 sequence (chain, biotin (EZ-Link NHS-PEG4-Biotin, 1,1 molar ratio) where immobilised in BLI): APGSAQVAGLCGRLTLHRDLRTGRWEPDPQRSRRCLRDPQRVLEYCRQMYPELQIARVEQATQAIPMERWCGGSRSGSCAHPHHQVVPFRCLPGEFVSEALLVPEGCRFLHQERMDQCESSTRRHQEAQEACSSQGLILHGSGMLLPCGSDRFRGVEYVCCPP
Assay: BLI; biotinylated E1 domain ([…] nM) immobilised on streptavidin tips, CNTN FN1–FN3 in solution; room temperature; 150 mM NaCl, 10 mM Na-Hepes pH 7.5, 1 mg/ml BSA, 0.02% Tween-20; BLItz or Octet K2; KD from the signal at equilibrium; both purified

Amino acid sequences for entries named in this document (tags omitted). A change or cut given only in a name is not applied to a line headed by its entry.
UniProt Q9P232: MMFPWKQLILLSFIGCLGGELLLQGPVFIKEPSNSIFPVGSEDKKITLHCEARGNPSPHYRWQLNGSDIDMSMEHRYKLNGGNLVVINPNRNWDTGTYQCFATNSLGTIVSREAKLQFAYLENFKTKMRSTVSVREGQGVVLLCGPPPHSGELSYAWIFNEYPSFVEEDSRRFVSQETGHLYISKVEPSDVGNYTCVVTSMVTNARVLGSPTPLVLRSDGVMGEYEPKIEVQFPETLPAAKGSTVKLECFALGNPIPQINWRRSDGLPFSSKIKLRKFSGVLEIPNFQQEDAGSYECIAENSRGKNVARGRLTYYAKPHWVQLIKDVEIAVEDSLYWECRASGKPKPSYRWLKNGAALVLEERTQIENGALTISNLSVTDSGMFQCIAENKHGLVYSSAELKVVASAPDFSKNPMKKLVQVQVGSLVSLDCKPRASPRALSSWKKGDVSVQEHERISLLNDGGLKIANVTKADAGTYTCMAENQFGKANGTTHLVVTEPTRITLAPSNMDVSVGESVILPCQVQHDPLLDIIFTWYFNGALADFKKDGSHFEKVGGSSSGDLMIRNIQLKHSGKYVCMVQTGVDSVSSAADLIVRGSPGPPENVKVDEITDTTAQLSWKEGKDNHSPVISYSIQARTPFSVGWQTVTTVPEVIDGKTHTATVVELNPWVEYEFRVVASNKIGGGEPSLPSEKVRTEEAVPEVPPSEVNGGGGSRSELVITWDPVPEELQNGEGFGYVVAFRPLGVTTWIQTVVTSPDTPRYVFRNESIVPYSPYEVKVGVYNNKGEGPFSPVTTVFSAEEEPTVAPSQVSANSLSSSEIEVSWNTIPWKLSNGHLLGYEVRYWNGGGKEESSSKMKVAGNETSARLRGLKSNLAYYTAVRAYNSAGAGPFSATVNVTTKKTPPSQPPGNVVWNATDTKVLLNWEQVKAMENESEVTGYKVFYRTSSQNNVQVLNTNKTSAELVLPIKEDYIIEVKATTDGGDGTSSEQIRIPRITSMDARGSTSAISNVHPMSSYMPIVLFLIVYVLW
UniProt Q8IWV2: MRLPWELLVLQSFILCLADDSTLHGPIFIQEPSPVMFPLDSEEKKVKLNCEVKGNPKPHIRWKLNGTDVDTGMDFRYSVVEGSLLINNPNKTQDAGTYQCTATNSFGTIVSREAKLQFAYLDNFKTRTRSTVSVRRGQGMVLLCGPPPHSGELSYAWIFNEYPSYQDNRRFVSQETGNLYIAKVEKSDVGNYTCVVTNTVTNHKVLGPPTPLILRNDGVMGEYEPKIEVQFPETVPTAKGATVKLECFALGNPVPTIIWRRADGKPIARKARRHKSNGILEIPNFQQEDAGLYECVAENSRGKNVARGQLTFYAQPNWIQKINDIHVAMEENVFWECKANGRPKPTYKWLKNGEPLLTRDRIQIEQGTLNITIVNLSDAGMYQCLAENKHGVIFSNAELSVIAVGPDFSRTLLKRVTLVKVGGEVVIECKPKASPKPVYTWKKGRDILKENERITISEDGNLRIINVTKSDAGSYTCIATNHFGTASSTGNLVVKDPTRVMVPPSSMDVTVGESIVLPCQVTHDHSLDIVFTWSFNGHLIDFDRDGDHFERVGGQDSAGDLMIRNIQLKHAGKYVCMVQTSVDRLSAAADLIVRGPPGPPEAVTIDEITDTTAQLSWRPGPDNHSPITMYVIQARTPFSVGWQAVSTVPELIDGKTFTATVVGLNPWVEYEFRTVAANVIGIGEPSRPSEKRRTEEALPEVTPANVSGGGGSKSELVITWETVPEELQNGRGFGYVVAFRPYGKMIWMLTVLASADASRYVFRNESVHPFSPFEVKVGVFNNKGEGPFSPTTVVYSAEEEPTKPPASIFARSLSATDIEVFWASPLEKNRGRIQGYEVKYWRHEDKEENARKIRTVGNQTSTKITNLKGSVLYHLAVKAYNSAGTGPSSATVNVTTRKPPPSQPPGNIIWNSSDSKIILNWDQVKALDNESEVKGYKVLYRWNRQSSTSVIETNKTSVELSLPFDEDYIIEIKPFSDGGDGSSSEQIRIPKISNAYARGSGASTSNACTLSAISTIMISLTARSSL

For “FN1–FN3 region of CNTN3 titrated against human APLP1(E1) (from UniProt Q9P232) (domain or fragment)”, the binding was “binds”.
For “FN1–FN3 region of human CNTN4 (from UniProt Q8IWV2) (domain or fragment)”, the binding was “binds”.

— article PMC8808184
